These are yes or no findings as the source states them, for the method shown. Binding seen in cells or lysates may run through a third protein. These calls come from enrichment with a bait or labelling near it, and not all partners need be listed.
T1: Fibrillin 2 (FBN2) (Arabidopsis thaliana (endogenous in leaves)) (UniProt O82291)
T1 sequence: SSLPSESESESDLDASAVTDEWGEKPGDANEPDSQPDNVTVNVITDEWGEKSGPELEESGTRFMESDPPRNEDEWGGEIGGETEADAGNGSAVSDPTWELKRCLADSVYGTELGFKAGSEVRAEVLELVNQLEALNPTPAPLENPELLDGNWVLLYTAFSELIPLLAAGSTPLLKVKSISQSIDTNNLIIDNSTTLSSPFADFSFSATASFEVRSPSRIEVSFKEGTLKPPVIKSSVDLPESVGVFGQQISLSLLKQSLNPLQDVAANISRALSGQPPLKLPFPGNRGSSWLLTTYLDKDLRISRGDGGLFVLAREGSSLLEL

Sequences of proteins named here, by UniProt entry; tags and fusion partners are left off. A change or cut given only in a name is not applied to a line headed by its entry.
UniProt Q9LW26: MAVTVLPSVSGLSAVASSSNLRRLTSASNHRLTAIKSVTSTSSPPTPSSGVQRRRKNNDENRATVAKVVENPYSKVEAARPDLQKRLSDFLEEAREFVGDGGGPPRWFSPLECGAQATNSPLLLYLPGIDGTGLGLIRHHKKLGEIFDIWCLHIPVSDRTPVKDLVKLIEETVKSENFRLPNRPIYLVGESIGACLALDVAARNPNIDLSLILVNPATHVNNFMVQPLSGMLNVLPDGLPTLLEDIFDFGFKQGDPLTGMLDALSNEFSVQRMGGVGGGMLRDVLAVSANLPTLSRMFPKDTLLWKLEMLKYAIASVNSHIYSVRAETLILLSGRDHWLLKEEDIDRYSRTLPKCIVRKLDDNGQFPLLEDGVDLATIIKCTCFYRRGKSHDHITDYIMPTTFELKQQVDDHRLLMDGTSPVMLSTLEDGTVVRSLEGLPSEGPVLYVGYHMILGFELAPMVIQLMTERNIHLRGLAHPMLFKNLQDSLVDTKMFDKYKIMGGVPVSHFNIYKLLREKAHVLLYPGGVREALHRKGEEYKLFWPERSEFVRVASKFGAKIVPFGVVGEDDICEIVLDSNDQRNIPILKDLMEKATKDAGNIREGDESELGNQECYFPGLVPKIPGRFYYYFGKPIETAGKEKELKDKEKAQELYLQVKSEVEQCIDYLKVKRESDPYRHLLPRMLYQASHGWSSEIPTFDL
UniProt Q9FVR6: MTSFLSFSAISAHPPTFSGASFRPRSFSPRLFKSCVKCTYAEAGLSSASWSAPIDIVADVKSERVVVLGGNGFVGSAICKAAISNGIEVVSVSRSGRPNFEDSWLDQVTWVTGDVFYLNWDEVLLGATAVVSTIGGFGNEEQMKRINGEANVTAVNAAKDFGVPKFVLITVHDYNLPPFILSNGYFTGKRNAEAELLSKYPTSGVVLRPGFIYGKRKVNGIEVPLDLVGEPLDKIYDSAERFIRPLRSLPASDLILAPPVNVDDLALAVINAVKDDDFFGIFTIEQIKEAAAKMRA


Molecular target: T1, Fibrillin 2 (FBN2) (Arabidopsis thaliana (endogenous in leaves))
Assay: affinity purification with mass spectrometry; Co-IP of endogenous FBN2 with the polyclonal anti-FBN2 antibody from the soluble (stroma) fraction of Arabidopsis chloroplasts; LC-MS/MS; fbn2 mutant as control

binding | Molecule
binds | Fructose bisphosphate aldolase 2 (enzyme, UniProt Q944G9 47-398) AASSYADELVKTAKTIASPGRGILAMDESNATCGKRLDSIGLENTEANRQAFRTLLVSAPGLGQYVSGAILFEETLYQSTTEGKKMVDVLVEQNIVPGIKVDKGLVPLVGSNNESWCQGLDGLSSRTAAYYQQGARFAKWRTVVSIPNGPSALAVKEAAWGLARYAAISQDSGLVPIVEPEILLDGEHDIDRTYDVAEKVWAEVFFYLAQNNVMFEGILLKPSMVTPGAESKDRATPEQVAAYTLKLLRNRVPPAVPGIMFLSGGQSEVEATLNLNAMNQAPNPWHVSFSYARALQNTCLKTWGGRPENVNAAQTTLLARAKANSLAQLGKYTGEGESEEAKEGMFVKGYTY
binds | Fructose bisphosphate aldolase 1 (enzyme, UniProt Q9SJU4 49-399) ASAYADELVKTAKTIASPGHGIMAMDESNATCGKRLASIGLENTEANRQAYRTLLVSAPGLGQYISGAILFEETLYQSTTDGKKMVDVLVEQNIVPGIKVDKGLVPLVGSYDESWCQGLDGLASRTAAYYQQGARFAKWRTVVSIPNGPSALAVKEAAWGLARYAAISQDSGLVPIVEPEIMLDGEHGIDRTYDVAEKVWAEVFFYLAQNNVMFEGILLKPSMVTPGAEATDRATPEQVASYTLKLLRNRIPPAVPGIMFLSGGQSELEATLNLNAMNQAPNPWHVSFSYARALQNTCLKTWGGKEENVKAAQDILLARAKANSLAQLGKYTGEGESEEAKEGMFVKGYTY

Molecular target: T1, Fibrillin 2 (FBN2) (Arabidopsis thaliana (endogenous in leaves))
Assay: affinity purification with mass spectrometry; Co-IP of endogenous FBN2 with a polyclonal anti-FBN2 antibody (Dynabeads Co-Immunoprecipitation Kit) from Arabidopsis thylakoid membranes extracted with 0.01% Triton X-100 in 100 mM phosphate buffer pH 7; LC-MS/MS; proteins also found with fbn2 mutant extracts removed; three independent experiments

binding | Molecule
binds | Diacylglycerol acyltransferase 4 (DGAT4) (from UniProt Q9LW26) (enzyme)
binds | Acclimation of photosynthesis to environment (APE1)
binds | Flavin-reductase-related 1 (from UniProt Q9FVR6)
binds | Fructose bisphosphate aldolase 2 (enzyme, UniProt Q944G9 47-398) AASSYADELVKTAKTIASPGRGILAMDESNATCGKRLDSIGLENTEANRQAFRTLLVSAPGLGQYVSGAILFEETLYQSTTEGKKMVDVLVEQNIVPGIKVDKGLVPLVGSNNESWCQGLDGLSSRTAAYYQQGARFAKWRTVVSIPNGPSALAVKEAAWGLARYAAISQDSGLVPIVEPEILLDGEHDIDRTYDVAEKVWAEVFFYLAQNNVMFEGILLKPSMVTPGAESKDRATPEQVAAYTLKLLRNRVPPAVPGIMFLSGGQSEVEATLNLNAMNQAPNPWHVSFSYARALQNTCLKTWGGRPENVNAAQTTLLARAKANSLAQLGKYTGEGESEEAKEGMFVKGYTY
binds | Ferredoxin-NADP[H]-oxidoreductase 2 (FNR2) (enzyme, UniProt Q8W493 58-369) ITTETDTPTPAKKVEKVSKKNEEGVIVNRYRPKEPYTGKCLLNTKITADDAPGETWHMVFSHQGEIPYREGQSVGVIADGIDKNGKPHKVRLYSIASSALGDLGNSETVSLCVKRLVYTNDQGETVKGVCSNFLCDLAPGSDVKLTGPVGKEMLMPKDPNATVIMLATGTGIAPFRSFLWKMFFEKHDDYKFNGLAWLFLGVPTTSSLLYQEEFDKMKAKAPENFRVDYAISREQANDKGEKMYIQTRMAQYAAELWELLKKDNTFVYMCGLKGMEKGIDDIMVSLAANDGIDWFDYKKQLKKAEQWNVEVY
binds | NAD(P)-binding Rossmann-fold superfamily protein (At4g35250) (protein, UniProt O65502 65-395) SAAAVNLAPGTPVRPTSILVVGATGTLGRQIVRRALDEGYDVRCLVRPRPAPADFLRDWGATVVNADLSKPETIPATLVGIHTVIDCATGRPEEPIKTVDWEGKVALIQCAKAMGIQKYVFYSIHNCDKHPEVPLMEIKYCTEKFLQESGLNHITIRLCGFMQGLIGQYAVPILEEKSVWGTDAPTRVAYMDTQDIARLTLIALRNEKINGKLLTFAGPRAWTTQEVITLCERLAGQDANVTTVPVSVLRVTRQLTRFFQWTNDVADRLAFSEVLSSDTVFSAPMTETNSLLGVDQKDMVTLEKYLQDYFSNILKKLKDLKAQSKQSDIYF
binds | 9-cis-epoxycarotenoid dioxygenase 4 (CCD4) (enzyme, UniProt O49675 35-595) SAVVEERSPITNPSDNNDRRNKPKTLHNRTNHTLVSSPPKLRPEMTLATALFTTVEDVINTFIDPPSRPSVDPKHVLSDNFAPVLDELPPTDCEIIHGTLPLSLNGAYIRNGPNPQFLPRGPYHLFDGDGMLHAIKIHNGKATLCSRYVKTYKYNVEKQTGAPVMPNVFSGFNGVTASVARGALTAARVLTGQYNPVNGIGLANTSLAFFSNRLFALGESDLPYAVRLTESGDIETIGRYDFDGKLAMSMTAHPKTDPITGETFAFRYGPVPPFLTYFRFDSAGKKQRDVPIFSMTSPSFLHDFAITKRHAIFAEIQLGMRMNMLDLVLEGGSPVGTDNGKTPRLGVIPKYAGDESEMKWFEVPGFNIIHAINAWDEDDGNSVVLIAPNIMSIEHTLERMDLVHALVEKVKIDLVTGIVRRHPISARNLDFAVINPAFLGRCSRYVYAAIGDPMPKISGVVKLDVSKGDRDDCTVARRMYGSGCYGGEPFFVARDPGNPEAEEDDGYVVTYVHDEVTGESKFLVMDAKSPELEIVAAVRLPRRVPYGFHGLFVKESDLNKL
binds | NAD(P)H-quinone oxidoreductase subunit S (NdhS) (protein, UniProt Q9T0A4 49-250) AMGKFNLWEVMGGRGLCNGEKGIEKELQRNIEDEQETSKAENNETERESDDSNLSFKVPEDGFEKEMMGLTGGFPGGEKGLKTFIEKNPPPPPPPPPAKQGSDASAVATDKKPKAPKLPLLMPGMIAIVKNQNSPYHMYCGIVQRITDGKAGVLFEGGNWDRLITFRLEELERREKGPPGKNPKSCILEPLIEQMQKEEAAP
binds | NAD(P)H dehydrogenase C1 (enzyme, UniProt Q8GXR9 53-519) AVTNNSGTTEISDNETAPRTYSWPDNKRPRVCILGGGFGGLYTALRLESLVWPEDKKPQVVLVDQSERFVFKPMLYELLSGEVDVWEIAPRFSDLLTNTGIQFLRDRVKTLLPCDHLGVNGSEISVTGGTVLLESGFKIEYDWLVLALGAESKLDVVPGAMELAFPFYTLEDAIRVNEKLSKLERKNFKDGSAIKVAVVGCGYAGVELAATISERLQDRGIVQSINVSKNILTSAPDGNREAAMKVLTSRKVQLLLGYLVQSIKRASNLEEDEGYFLELQPAERGLESQIIEADIVLWTVGAKPLLTKLEPSGPNVLPLNARGQAETDETLRVKGHPRIFALGDSSSLRDSNGKILPTTAQVAFQEADFTGWNIWAAINNRPLLPFRFQNLGEMMTLGRYDAAISPSFIEGLTLEGPIGHAARKLAYLIRLPTDEHRFKVGISWFAKSAVDSIALLQSNLTKVLSGS
binds | Allene oxide synthase (AOS) (enzyme, UniProt Q96242 34-518) SGSETPDLTVATRTGSKDLPIRNIPGNYGLPIVGPIKDRWDYFYDQGAEEFFKSRIRKYNSTVYRVNMPPGAFIAENPQVVALLDGKSFPVLFDVDKVEKKDLFTGTYMPSTELTGGYRILSYLDPSEPKHEKLKNLLFFLLKSSRNRIFPEFQATYSELFDSLEKELSLKGKADFGGSSDGTAFNFLARAFYGTNPADTKLKADAPGLITKWVLFNLHPLLSIGLPRVIEEPLIHTFSLPPALVKSDYQRLYEFFLESAGEILVEADKLGISREEATHNLLFATCFNTWGGMKILFPNMVKRIGRAGHQVHNRLAEEIRSVIKSNGGELTMGAIEKMELTKSVVYECLRFEPPVTAQYGRAKKDLVIESHDAAFKVKAGEMLYGYQPLATRDPKIFDRADEFVPERFVGEEGEKLLRHVLWSNGPETETPTVGNKQCAGKDFVVLVARLFVIEIFRRYDSFDIEVGTSPLGSSVNFSSLRKASF
binds | Fructose bisphosphate aldolase 1 (enzyme, UniProt Q9SJU4 49-399) ASAYADELVKTAKTIASPGHGIMAMDESNATCGKRLASIGLENTEANRQAYRTLLVSAPGLGQYISGAILFEETLYQSTTDGKKMVDVLVEQNIVPGIKVDKGLVPLVGSYDESWCQGLDGLASRTAAYYQQGARFAKWRTVVSIPNGPSALAVKEAAWGLARYAAISQDSGLVPIVEPEIMLDGEHGIDRTYDVAEKVWAEVFFYLAQNNVMFEGILLKPSMVTPGAEATDRATPEQVASYTLKLLRNRIPPAVPGIMFLSGGQSELEATLNLNAMNQAPNPWHVSFSYARALQNTCLKTWGGKEENVKAAQDILLARAKANSLAQLGKYTGEGESEEAKEGMFVKGYTY
binds | Fibrillin 1a (FBN1a) (protein, UniProt O81439 56-318) ATDIDDEWGQDGVERVFASSSTVSVADKAIESVEETERLKRSLADSLYGTDRGLSVSSDTRAEISELITQLESKNPTPAPNEALFLLNGKWILAYTSFVGLFPLLSRRIEPLVKVDEISQTIDSDSFTVQNSVRFAGPFSTTSFSTNAKFEIRSPKRVQIKFEQGVIGTPQLTDSIEIPESVEVLGQKIDLNPIKGLLTSVQDTASSVARTISNQPPLKFSLPSDNTQSWLLTTYLDKDLRISRGDGGSVYVLIKEGSSLLNP
binds | NAD(P)-binding Rossmann-fold superfamily protein (Tic62) (protein, UniProt Q8H0U5 64-641) ASSVVTEASPTNLNSKEEDLVFVAGATGKVGSRTVRELLKLGFRVRAGVRSAQRAGSLVQSVKEMKLQNTDEGTQPVEKLEIVECDLEKKDSIQPALGNASVIICCIGASEKEISDITGPYRIDYLATKNLVDAATSAKVNNFILVTSLGTNKFGFPAAILNLFWGVLCWKRKAEEALIESGLNYAIVRPGGMERPTDAYKETHNLTLALDDTLFGGQVSNLQVAELLACMAKNPQLSFSKIVEVVAETTAPLTPIEKLLEKIPSKRPYVPPPKASVATKEVKPVPTKPVTQEPTAPKEDEAPPKEKNVKPRPLSPYASYEDLKPPTSPIPNSTTSVSPAKSKEVDATQVPVEANVVPVPDSTSNVPVVEVKQVEEKKERPLSPYARYENLKPPSSPSPTASSTRKSDSLSPGPTDSDTDKSSTVAKTVTETAVATSVTETSVATSVPETAVATSVTETAAPATSKMRPLSPYAIYADLKPPTSPTPASTGPKEAASVEDNSELPGGNNDVLKTVDGNLNTIPPSTPEAVPVVSSAIDTSLASGDNTAQPKPRPLSPYTMYADMKPPTSPLPSPVTNH
